# In all, about 320,000 compounds went through this assay and about 480 (0.15%) were called active. This list was built around the results that the source calls inconclusive (neither active nor inactive); the mix of calls is not that of the screen. Cut-off read from the data, not from the text of the source: active = inhibition above about 26% (passing the limit was not always enough); inconclusive = no clear call, values can overlap the other calls.
# By UniProt entry, the sequences of proteins in these tests, tags left out.
# UniProt O15379, whole entry, looked up: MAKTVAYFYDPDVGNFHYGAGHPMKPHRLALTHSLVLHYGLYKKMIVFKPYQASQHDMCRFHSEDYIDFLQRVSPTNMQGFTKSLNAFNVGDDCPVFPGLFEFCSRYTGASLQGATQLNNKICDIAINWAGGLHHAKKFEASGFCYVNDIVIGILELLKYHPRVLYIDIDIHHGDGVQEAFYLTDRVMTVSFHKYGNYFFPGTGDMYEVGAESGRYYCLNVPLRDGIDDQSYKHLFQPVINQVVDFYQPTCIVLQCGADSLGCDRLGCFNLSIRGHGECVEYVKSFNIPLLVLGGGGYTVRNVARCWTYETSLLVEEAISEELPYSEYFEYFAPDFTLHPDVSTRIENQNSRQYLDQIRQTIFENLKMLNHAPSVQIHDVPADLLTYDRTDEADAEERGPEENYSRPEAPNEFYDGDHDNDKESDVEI
# Target: Histone deacetylase 3 (Homo sapiens) (UniProt O15379)
# Assay: HDAC3 deacetylase inhibitors, primary screen, biochemical, fluorescence, cell-free homogeneous (AID 2718)
# Conditions: recombinant HDAC3, fluorogenic peptide/trypsin coupled, at 8.3 µM, hits give high values
row,SMILES,inhibition
1,O=C(NCCC(=O)N1CCN(c2ccccc2O)CC1)c1ccc(Cl)cc1,inconclusive: 18.9%
2,Cc1cc(C)n(/N=C/c2c[nH]c3ccccc23)c(=O)c1C#N,inactive: 0.229%
3,O=C(NCCN1C(=O)C2C3C=CC(C3)C2C1=O)Nc1cccnc1 (stereo not drawn),inactive: -4.94%
4,CC(=C\c1ccco1)/C=C1/SC(=S)N(CC(=O)O)C1=O,inactive: -1.48%
5,CC(C)C(NC(=O)c1ccccc1NC(=O)c1ccccc1)C(=O)NCCCn1ccnc1 (stereo not drawn),inactive: -1.57%
6,Cc1ccc(N2CCN(C(=O)c3cc(-c4ccc(F)cc4)[nH]c3C)CC2C)cc1 (stereo not drawn),inconclusive: 25.4%
7,Cc1cccn2c(=O)c3cc(C(=O)NCCN4CCOCC4)c(=N)n(Cc4ccc(F)cc4)c3nc12,inactive: -69.3%
8,O=C(C1=NN[C@@H]2C(=O)N(c3cccc(F)c3)C(=O)[C@H]12)c1ccc2ccccc2n1,inactive: 0.733%
9,CC1CCN(C(=O)C2CCN(CCCc3ccccc3)CC2)CC1,inconclusive: 34.1%
10,CCCc1cc(=O)n2[nH]cnc2n1,inactive: -3.39%
11,COc1ccc(N2C(=O)CC(Sc3n[nH]c(-c4ccccc4)n3)C2=O)cc1 (stereo not drawn),inconclusive: 24.4%
12,O=C(CCc1nc2ccccc2c(=O)[nH]1)OCc1nnc(-c2ccccc2)o1,inconclusive: 24.2%
13,Cc1ccc(CNC(=O)c2cc(-c3ccccc3)nn2Cc2cc(C)no2)cc1,inconclusive: 10.3%
14,COc1ccc(C(=O)COC(=O)CCN2C(=O)C3C4CCC(C4)C3C2=O)cc1 (stereo not drawn),inconclusive: 15.6%
15,COc1ccc(Cc2nc3ccc(C(=O)N4CCOCC4)cc3o2)cc1,inconclusive: 11.3%
16,Cc1cccc(CS(=O)(=O)c2nnc([C@H](Cc3ccccc3)NC(=O)OC(C)(C)C)o2)c1,active: 60.7%
17,CCC1CCC/C1=N\NC(=O)CCC(=O)Nc1ccccc1Cl (stereo not drawn),inconclusive: 5.53%
18,CCn1c(NCc2ccco2)nc2ccccc21,inactive: 1.85%
19,O=S(=O)(NCc1ccccc1)c1ccc(S(=O)(=O)NCC2CCCO2)cc1 (stereo not drawn),inconclusive: 15.2%
20,O=C(CSc1nc(NS(=O)(=O)c2ccccc2)cc(=O)[nH]1)Nc1ccc(F)cc1,inactive: -4.49%
21,Cc1csc(SCC(=O)Nc2cccc3nsnc23)n1,inconclusive: 33.1%
22,COC(=O)c1ccc(CSc2nc3cc(Cl)ccc3s2)o1,inconclusive: 29.3%
23,CNC(=S)NNc1nncc2ccccc12,inconclusive: 17.3%
24,COc1ccc(S(=O)(=O)Nc2cc(C)on2)cc1,inconclusive: 14%

row,SMILES,inhibition
1,O=C(OCc1cnc(Cl)s1)c1cccc(Cl)c1,inconclusive: 19.4%
2,COc1ccc(C2CC(c3cccs3)=NN2C(=O)CN2CCCCC2)cc1 (stereo not drawn),inconclusive: 32%
3,COc1ccc(OC)c(-c2nc(C(N)=O)c3[nH]c(=O)n(-c4ccc(F)cc4)c3n2)c1,inactive: 1.17%
4,Cc1nc(SCc2ccc(F)cc2)n[nH]1,inconclusive: 6.47%
5,O=C(CNC(=O)c1ccc(Br)o1)Nc1cccc(S(=O)(=O)N2CCCC2)c1,inactive: -3.52%
6,COc1ccc(C(=O)OCC(=O)Nc2ccc(F)c(F)c2)cc1OC,inconclusive: 27.6%
7,CCc1noc(C)c1C(=O)NC1CCCc2c1cnn2-c1ccc(C(C)(C)C)cc1 (stereo not drawn),inactive: -4.04%
8,COc1ccc(NC(=O)COC(=O)c2c(F)cccc2Cl)cc1OC,inconclusive: 18.6%
9,CCN(CC)C(=O)CSc1nsc(SCC(=O)N(CC)CC)c1C#N,inconclusive: 15.5%
10,O=C(/C=C/c1ccccc1)NC(=S)NNC(=O)c1cccnc1,inconclusive: 17.2%
11,COc1cc(/C=C/C(=O)OCC(=O)N2CCc3ccccc3C2)ccc1O,inconclusive: 12.6%
12,COc1ccc(C2NCCn3cccc32)cc1 (stereo not drawn),inconclusive: 18.9%
13,CCC(C(=O)N/N=C/c1cccnc1)c1ccccc1 (stereo not drawn),inconclusive: 19.4%
14,CCN(C(=O)COC(=O)c1ccc(N2C(=O)c3ccccc3C2=O)cc1)C1CCS(=O)(=O)C1 (stereo not drawn),inconclusive: 24%
15,Fc1ccc2cc(-c3ccccc3)ncc2c1,inactive: -5.27%
16,CC(C)(C)c1ccc(OCCOCCn2cnc3ccccc3c2=O)cc1,inconclusive: 13%
17,Brc1ccc2nc(-c3c[nH]c4ccccc34)cn2c1,inactive: 2.72%
18,CCOc1ccc(OCCCC(=O)ON=C(N)c2ccccc2Cl)cc1,inconclusive: 14.6%
19,CN1[C@@H]2CCC[C@H]1CC(NC(=O)c1nn(C)c3ccccc13)C2 (stereo partly drawn),inactive: 3.09%
20,COc1cccc(/C=C2\SC(=O)NC2=O)c1OCc1ccc(C(=O)O)cc1,inconclusive: 24.2%
21,Cc1cc(C)cc(N2C(=O)CC(Sc3ncn[nH]3)C2=O)c1 (stereo not drawn),active: 29.2%
22,O=c1c(-c2ccccc2)n[nH]c2ccccc12,inactive: 0.441%
23,CCOc1ccc(NC(=O)CC2SC(=O)N(c3ccccc3)C2=O)cc1 (stereo not drawn),active: 39.7%
24,O=C(c1cccs1)N(C(=O)c1cccs1)c1ccc(Br)cn1,inconclusive: 22.9%

# An excerpt from the list above, as a working copy:
row,SMILES,inhibition
11,COc1cc(/C=C/C(=O)OCC(=O)N2CCc3ccccc3C2)ccc1O,inconclusive: 12.6%
12,COc1ccc(C2NCCn3cccc32)cc1 (stereo not drawn),inconclusive: 18.9%

# Next results:

row,SMILES,inhibition
1,Cc1c(C(=O)N2CCN(Cc3ccc4c(c3)OCO4)CC2)sc2ncnc(N3CCN(c4ccccc4F)CC3)c12,inactive: -9.97%
2,Nc1cc(=O)nc(SCC(=O)Nc2cccc3ccccc23)n1CCc1ccccc1,inactive: 2.3%
3,Cc1ccc(S(=O)(=O)NCCC(=O)NCc2ccc3c(c2)OCO3)cc1C,inconclusive: 24.9%
4,CN1CCN(C(=O)c2c(O)c3cccc4c3n(c2=O)CC4)CC1,inactive: 3.39%
5,COc1cccc(NC(=O)c2cc(-c3ccc(C)o3)nc3ccccc23)c1,inconclusive: 16.3%
6,S=C(NCCc1ccccc1)N/N=C/c1cccs1,inactive: -0.509%
7,O=C1CNC(=S)N1c1nc2ccccc2s1,inactive: 8.88%
8,CC(=O)C1=C(O)C(=O)N(c2nccs2)C1c1ccc(F)cc1 (stereo not drawn),inactive: 11.1%
9,O=C1CC(Sc2ncccn2)C(=O)N1c1ccccc1 (stereo not drawn),inactive: -4.49%
10,O=C(N/N=C/c1ccc(OC(F)F)cc1)c1ccc(Br)cc1,inactive: 1.4%
11,Fc1ccc(-c2nnsc2Sc2ccccn2)cc1,inactive: -3.53%
12,CCCCCCc1ccc(N2C[C@H](Cc3ccccc3)[C@@H](CC(=O)Nc3ccccc3)C2=O)cc1,inconclusive: 16.7%
13,CCOc1ccccc1OCCCC(=O)NC1=NCCS1,inconclusive: 34.6%
14,CC(C)N(C(=O)CSc1ccc(S(=O)(=O)N2CCCCC2)cn1)c1ccccc1,inconclusive: 43.8%
15,O=C(NNC(=O)C1CC=CCC1)c1ccccc1Br (stereo not drawn),inconclusive: 21.6%
16,CCOC(=O)C1=C(c2ccccc2)NC(SC)=C(C#N)C1c1ccco1 (stereo not drawn),inconclusive: 20.3%
17,CC(=O)c1ccc(N2CCN(C(=O)Cc3cccs3)CC2)cc1,inactive: 3.71%
18,O=C(Nc1ccc(-c2cn3ccccc3n2)cc1)c1cccs1,inactive: 3.54%
19,CCC[C@@H](CNC)NC[C@H](Cc1ccccc1)NCCCCc1ccccc1,inactive: -1.3%
20,COc1cccc(C(=O)NCC2CCCN2S(=O)(=O)c2cccs2)c1 (stereo not drawn),inconclusive: 18.4%
21,COc1ccc(Br)cc1CN(C)C(C)C(=O)Nc1cccc(C(C)=O)c1 (stereo not drawn),inconclusive: 11.9%
22,C=CCn1nnnc1SCC(=O)Nc1cccc(C(F)(F)F)c1,inactive: -1.55%
23,CC1(NC(=O)CC(c2ccccc2)(c2ccccc2)c2ccccc2)CCN(Cc2ccc(-c3ccccc3)cc2)C1=O (stereo not drawn),inconclusive: 17.4%
24,COC(=O)C1C(c2ccccc2)NC(=O)NC1(O)C(F)(F)Cl (stereo not drawn),inconclusive: 23.8%

# Ordered by SMILES length (smallest number first): 20 of the compounds above.
row,SMILES,inhibition
7,O=C1CNC(=S)N1c1nc2ccccc2s1,inactive: 8.88%
11,Fc1ccc(-c2nnsc2Sc2ccccn2)cc1,inactive: -3.53%
13,CCOc1ccccc1OCCCC(=O)NC1=NCCS1,inconclusive: 34.6%
22,O=c1c(-c2ccccc2)n[nH]c2ccccc12,inactive: 0.441%
15,O=C(NNC(=O)C1CC=CCC1)c1ccccc1Br (stereo not drawn),inconclusive: 21.6%
9,O=C1CC(Sc2ncccn2)C(=O)N1c1ccccc1 (stereo not drawn),inactive: -4.49%
22,C=CCn1nnnc1SCC(=O)Nc1cccc(C(F)(F)F)c1,inactive: -1.55%
24,O=C(c1cccs1)N(C(=O)c1cccs1)c1ccc(Br)cn1,inconclusive: 22.9%
21,Cc1cc(C)cc(N2C(=O)CC(Sc3ncn[nH]3)C2=O)c1 (stereo not drawn),active: 29.2%
24,COC(=O)C1C(c2ccccc2)NC(=O)NC1(O)C(F)(F)Cl (stereo not drawn),inconclusive: 23.8%
20,COc1cccc(C(=O)NCC2CCCN2S(=O)(=O)c2cccs2)c1 (stereo not drawn),inconclusive: 18.4%
23,CCOc1ccc(NC(=O)CC2SC(=O)N(c3ccccc3)C2=O)cc1 (stereo not drawn),active: 39.7%
16,CCOC(=O)C1=C(c2ccccc2)NC(SC)=C(C#N)C1c1ccco1 (stereo not drawn),inconclusive: 20.3%
5,COc1cccc(NC(=O)c2cc(-c3ccc(C)o3)nc3ccccc23)c1,inconclusive: 16.3%
3,Cc1ccc(S(=O)(=O)NCCC(=O)NCc2ccc3c(c2)OCO3)cc1C,inconclusive: 24.9%
20,COc1cccc(/C=C2\SC(=O)NC2=O)c1OCc1ccc(C(=O)O)cc1,inconclusive: 24.2%
14,CC(C)N(C(=O)CSc1ccc(S(=O)(=O)N2CCCCC2)cn1)c1ccccc1,inconclusive: 43.8%
12,CCCCCCc1ccc(N2C[C@H](Cc3ccccc3)[C@@H](CC(=O)Nc3ccccc3)C2=O)cc1,inconclusive: 16.7%
1,Cc1c(C(=O)N2CCN(Cc3ccc4c(c3)OCO4)CC2)sc2ncnc(N3CCN(c4ccccc4F)CC3)c12,inactive: -9.97%
23,CC1(NC(=O)CC(c2ccccc2)(c2ccccc2)c2ccccc2)CCN(Cc2ccc(-c3ccccc3)cc2)C1=O (stereo not drawn),inconclusive: 17.4%

# (next part)

row,SMILES,inhibition
1,CC(=O)Nc1ccccc1C(=O)N1CCN(Cc2ccccc2)CC1,inconclusive: 16.4%
2,COc1ccc(C2CC(c3ccccc3)=NN2C(=O)CSc2ncccn2)cc1 (stereo not drawn),inconclusive: 29.8%
3,CC(OC(=O)c1snc(C(=O)NC2CCCCC2)c1N)C(=O)NC(C)(C)C (stereo not drawn),inactive: -7.86%
4,O=C(CN1C2CCCC1CC(NC(=O)C1CCCCC1)C2)Nc1ccccc1 (stereo not drawn),inconclusive: 20.5%
5,Cc1ccc2ncnc(Nc3ccc(C)c(C)c3)c2c1,inactive: -0.993%
6,O=C(COc1ccccc1F)c1ccc(O)cc1O,inactive: 9.49%
7,COCC(C)NC(=O)c1cc(OC)cc(OC)c1 (stereo not drawn),inactive: -1.39%
8,O=C(NC(Cc1ccccc1)C(=O)O)NC12CC3CC(CC(C3)C1)C2 (stereo not drawn),inconclusive: 7.99%
9,CCC(=O)Nc1cccc(C2=NOC3(C2)C[C@@H](C(N)=O)N(C(=O)C(c2ccccc2)c2ccccc2)C3)c1 (stereo partly drawn),inconclusive: 18.5%
10,Cc1ccc2cc(-c3noc(C4CCCO4)n3)c(=O)[nH]c2c1 (stereo not drawn),inactive: -5.9%
11,CCc1cccc(C)c1NC(=S)NCc1ccc2c(c1)cc(C)n2C,inactive: -1.93%
12,CCOc1cc([N+](=O)[O-])cc2c1C(=O)Nc1ccccc1O2,inactive: -1.07%
13,CSc1nc(-c2ccco2)nn1C(=O)c1cccs1,inconclusive: 20.7%
14,NC(=O)CSc1nnc2sc3ccccc3n12,inactive: -1.92%
15,C=CCNC(=O)CC(=O)N/N=C/c1cccc(Br)c1,inconclusive: 12%
16,CCOC(=O)c1c(S(=O)(=O)N2CCCC(C(=O)Nc3cccc(C)n3)C2)c(C)n(C)c1C (stereo not drawn),inconclusive: 19%
17,OC(c1ccc(Cl)cc1Cl)C(Cc1cccnc1)n1cncn1 (stereo not drawn),inconclusive: 21.5%
18,CCN(CCCNC(=O)CCn1c(=O)[nH]c2ccccc2c1=O)c1ccccc1,inconclusive: 18.4%
19,COc1ccc2nc(C)cc(N/N=C/c3cccc(OC)c3O)c2c1,inactive: 2.14%
20,c1ccc(SCCOCCn2cncn2)cc1,inconclusive: 25%
21,N#CCNC(=O)c1nn2c(C(F)(F)F)cc(-c3ccccc3)nc2c1Br,inactive: -8.73%
